This passage reports binding results from paper PMC11852955.

Protein sequences, listed by entry. Tags and fused reporters are not part of them.
UniProt P01101: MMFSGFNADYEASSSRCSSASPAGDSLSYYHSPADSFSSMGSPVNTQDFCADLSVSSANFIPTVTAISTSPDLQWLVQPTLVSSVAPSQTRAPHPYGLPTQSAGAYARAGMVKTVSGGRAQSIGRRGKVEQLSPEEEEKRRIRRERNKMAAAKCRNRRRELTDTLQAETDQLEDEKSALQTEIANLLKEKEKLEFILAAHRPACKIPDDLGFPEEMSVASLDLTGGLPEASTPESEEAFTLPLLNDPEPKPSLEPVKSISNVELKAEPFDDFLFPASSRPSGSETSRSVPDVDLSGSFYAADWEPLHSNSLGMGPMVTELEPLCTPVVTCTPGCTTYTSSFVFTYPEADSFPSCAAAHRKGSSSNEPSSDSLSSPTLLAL
UniProt P63216: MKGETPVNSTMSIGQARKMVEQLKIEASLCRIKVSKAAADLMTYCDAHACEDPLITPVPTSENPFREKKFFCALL

What all share (experiment): co-IP; lysates of mouse DRG (control, STZ diabetic, Ascl1/Lhx6-treated STZ groups); immunoprecipitation buffer with Tris-HCl, NaCl, MgCl2, EDTA, Triton X-100, glycerol; precleared with protein A/G PLUS-agarose; immunoprecipitated with rabbit anti-c-Fos, anti-JunD, anti-FosB, anti-FoxK1, anti-GNG3; washed with 50 mM Tris-HCl pH 7.4, 150 mM NaCl, 10 mM EDTA, 1% NP-40
Assay [1] deals with T1, FosB (mouse (endogenous in DRG)) (UniProt P13346).
T1 sequence: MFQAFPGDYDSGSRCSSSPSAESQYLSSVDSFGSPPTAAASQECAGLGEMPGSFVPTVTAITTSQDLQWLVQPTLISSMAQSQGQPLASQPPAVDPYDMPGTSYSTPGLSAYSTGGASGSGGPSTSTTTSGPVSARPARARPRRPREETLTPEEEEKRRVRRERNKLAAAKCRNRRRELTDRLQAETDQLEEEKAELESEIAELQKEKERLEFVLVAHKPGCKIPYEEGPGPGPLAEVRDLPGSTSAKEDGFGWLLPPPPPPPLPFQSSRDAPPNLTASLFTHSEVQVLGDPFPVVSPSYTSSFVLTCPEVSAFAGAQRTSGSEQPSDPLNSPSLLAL

In assay [2] the target is T2, JunD (mouse (endogenous in DRG)) (UniProt P15066).
T2 sequence: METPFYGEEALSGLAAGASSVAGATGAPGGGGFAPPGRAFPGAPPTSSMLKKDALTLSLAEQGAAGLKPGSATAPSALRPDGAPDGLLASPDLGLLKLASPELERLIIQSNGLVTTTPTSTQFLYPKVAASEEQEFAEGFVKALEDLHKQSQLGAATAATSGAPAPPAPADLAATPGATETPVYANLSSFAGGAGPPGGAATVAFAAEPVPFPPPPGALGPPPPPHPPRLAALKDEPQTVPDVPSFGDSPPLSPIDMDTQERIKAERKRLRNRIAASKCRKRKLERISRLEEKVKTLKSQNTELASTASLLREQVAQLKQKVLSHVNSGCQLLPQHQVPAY

In assay [3] the target is c-Fos (mouse (endogenous in DRG)) (UniProt P01101).

Results are given in words; binding and its absence hold for the method and conditions named. In cells and extracts the contact can be indirect. Some binding calls cover weakened binding; strength is not graded here.

As for “guanine nucleotide-binding protein G[I]/G[S]/G[O] subunit gamma-3 (from UniProt P63216 1-75)”, the binding entry in assay [1], in assay [2] and in assay [3] was “no binding” each time.

Consider c-Fos (from UniProt P01101 1-380), for which, in assay [2], the binding entry is on record as “binds”.

B1: FosB (protein, UniProt P13346 1-338)
chain: MFQAFPGDYDSGSRCSSSPSAESQYLSSVDSFGSPPTAAASQECAGLGEMPGSFVPTVTAITTSQDLQWLVQPTLISSMAQSQGQPLASQPPAVDPYDMPGTSYSTPGLSAYSTGGASGSGGPSTSTTTSGPVSARPARARPRRPREETLTPEEEEKRRVRRERNKLAAAKCRNRRRELTDRLQAETDQLEEEKAELESEIAELQKEKERLEFVLVAHKPGCKIPYEEGPGPGPLAEVRDLPGSTSAKEDGFGWLLPPPPPPPLPFQSSRDAPPNLTASLFTHSEVQVLGDPFPVVSPSYTSSFVLTCPEVSAFAGAQRTSGSEQPSDPLNSPSLLAL
As to B1, the binding result in assay [2] is listed as “binds”.
